# Experimental data published in PMC9049930.
# Protein sequences, listed by entry. Tags and fused reporters are not part of them.
# UniProt Q80TJ1: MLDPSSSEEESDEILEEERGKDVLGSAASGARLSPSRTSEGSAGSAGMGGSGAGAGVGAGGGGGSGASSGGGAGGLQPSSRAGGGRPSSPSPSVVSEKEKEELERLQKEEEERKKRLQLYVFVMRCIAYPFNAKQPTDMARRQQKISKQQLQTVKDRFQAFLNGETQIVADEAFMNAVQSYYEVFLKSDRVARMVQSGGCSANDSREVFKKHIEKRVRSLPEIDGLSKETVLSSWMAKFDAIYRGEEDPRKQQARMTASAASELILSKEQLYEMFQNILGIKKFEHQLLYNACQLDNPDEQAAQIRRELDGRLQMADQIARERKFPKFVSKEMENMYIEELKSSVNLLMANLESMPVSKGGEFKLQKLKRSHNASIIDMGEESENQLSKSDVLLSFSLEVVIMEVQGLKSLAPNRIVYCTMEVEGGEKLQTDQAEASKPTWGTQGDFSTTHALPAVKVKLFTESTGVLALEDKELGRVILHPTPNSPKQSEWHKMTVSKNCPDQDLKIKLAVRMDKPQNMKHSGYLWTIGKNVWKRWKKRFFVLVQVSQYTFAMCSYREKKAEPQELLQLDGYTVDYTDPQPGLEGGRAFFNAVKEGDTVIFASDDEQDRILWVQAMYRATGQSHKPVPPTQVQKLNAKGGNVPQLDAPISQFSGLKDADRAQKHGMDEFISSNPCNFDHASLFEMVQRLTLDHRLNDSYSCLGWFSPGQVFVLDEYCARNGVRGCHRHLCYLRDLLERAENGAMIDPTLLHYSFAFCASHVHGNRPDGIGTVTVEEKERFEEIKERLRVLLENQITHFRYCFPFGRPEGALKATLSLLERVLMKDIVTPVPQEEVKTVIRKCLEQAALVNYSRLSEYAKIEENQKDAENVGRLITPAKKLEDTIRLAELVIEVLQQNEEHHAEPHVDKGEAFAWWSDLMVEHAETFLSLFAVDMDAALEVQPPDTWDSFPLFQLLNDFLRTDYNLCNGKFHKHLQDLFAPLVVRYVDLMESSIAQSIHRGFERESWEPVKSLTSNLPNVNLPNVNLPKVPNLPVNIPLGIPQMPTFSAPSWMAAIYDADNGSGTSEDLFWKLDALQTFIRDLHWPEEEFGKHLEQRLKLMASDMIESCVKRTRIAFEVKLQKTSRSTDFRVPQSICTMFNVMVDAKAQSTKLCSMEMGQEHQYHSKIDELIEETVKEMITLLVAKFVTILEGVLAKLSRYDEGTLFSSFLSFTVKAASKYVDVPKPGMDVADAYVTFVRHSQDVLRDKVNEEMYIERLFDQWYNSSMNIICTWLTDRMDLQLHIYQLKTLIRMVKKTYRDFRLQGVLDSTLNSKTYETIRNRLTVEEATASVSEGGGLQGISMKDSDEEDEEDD
# UniProt O08788: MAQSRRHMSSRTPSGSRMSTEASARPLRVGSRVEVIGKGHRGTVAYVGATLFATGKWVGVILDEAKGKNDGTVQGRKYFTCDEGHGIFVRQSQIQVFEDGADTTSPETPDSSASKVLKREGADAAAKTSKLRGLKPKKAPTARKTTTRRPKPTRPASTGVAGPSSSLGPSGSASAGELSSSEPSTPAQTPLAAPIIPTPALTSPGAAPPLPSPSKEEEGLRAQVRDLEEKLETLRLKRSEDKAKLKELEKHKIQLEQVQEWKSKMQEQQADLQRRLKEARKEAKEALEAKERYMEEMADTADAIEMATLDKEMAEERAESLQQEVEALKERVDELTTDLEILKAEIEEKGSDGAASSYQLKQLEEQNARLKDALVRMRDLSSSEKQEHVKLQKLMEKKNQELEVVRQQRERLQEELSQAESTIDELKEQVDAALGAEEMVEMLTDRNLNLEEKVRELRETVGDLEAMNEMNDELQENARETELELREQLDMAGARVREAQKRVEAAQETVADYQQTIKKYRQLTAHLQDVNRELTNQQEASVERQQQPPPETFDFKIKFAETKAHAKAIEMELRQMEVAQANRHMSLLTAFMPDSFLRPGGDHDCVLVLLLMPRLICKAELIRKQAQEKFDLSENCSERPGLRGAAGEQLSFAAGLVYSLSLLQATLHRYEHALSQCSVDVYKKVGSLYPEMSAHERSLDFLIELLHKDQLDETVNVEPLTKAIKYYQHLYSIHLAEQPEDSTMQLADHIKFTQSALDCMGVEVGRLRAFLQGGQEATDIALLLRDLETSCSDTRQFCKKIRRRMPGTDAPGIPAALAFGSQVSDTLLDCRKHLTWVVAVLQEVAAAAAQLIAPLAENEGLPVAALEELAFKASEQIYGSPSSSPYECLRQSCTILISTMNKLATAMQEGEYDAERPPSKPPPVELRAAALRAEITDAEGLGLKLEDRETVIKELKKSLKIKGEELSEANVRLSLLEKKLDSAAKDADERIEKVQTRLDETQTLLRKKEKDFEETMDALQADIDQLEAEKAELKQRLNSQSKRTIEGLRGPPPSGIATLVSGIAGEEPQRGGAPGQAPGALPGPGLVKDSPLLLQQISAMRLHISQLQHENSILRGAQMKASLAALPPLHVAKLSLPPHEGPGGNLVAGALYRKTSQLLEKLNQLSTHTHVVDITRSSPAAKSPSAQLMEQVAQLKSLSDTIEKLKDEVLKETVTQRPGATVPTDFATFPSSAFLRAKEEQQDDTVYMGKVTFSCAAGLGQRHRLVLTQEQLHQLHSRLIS
# UniProt Q7TSJ2: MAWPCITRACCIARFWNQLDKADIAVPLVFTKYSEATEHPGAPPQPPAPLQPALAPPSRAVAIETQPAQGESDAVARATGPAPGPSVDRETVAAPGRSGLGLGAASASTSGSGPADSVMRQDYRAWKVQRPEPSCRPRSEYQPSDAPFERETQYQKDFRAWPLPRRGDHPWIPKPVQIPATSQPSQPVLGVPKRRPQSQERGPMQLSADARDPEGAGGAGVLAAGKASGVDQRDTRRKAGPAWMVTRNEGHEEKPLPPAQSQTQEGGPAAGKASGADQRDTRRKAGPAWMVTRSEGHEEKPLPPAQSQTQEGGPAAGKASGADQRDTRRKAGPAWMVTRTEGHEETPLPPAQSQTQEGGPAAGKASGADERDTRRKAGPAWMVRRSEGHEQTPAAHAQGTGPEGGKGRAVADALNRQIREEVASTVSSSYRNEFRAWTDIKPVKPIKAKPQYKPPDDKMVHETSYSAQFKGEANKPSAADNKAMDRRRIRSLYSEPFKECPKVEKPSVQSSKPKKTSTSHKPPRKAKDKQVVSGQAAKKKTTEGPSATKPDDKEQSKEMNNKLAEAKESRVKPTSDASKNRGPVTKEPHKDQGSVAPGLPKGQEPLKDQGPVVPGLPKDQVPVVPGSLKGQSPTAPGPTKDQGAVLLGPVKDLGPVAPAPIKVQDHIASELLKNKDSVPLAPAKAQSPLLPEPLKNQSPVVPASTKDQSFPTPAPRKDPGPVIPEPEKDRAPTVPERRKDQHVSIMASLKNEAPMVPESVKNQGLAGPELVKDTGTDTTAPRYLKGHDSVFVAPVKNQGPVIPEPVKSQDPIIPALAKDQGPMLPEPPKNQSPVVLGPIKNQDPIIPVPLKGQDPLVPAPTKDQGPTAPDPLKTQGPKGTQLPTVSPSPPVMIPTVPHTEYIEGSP
# B1: jouberin (protein, UniProt Q8K3E5 1-1047)
# chain: MEPETPEKVDSAQEKVRGKTPTADDSDDSREKTGIEEKGELTDAYQLQVAEEMAKEIKKKIRKKLKEQLTYFPPDTLLHDDKLASEKRKKKKKKVPVPTKPESSPSDVCDSAVEGEQKKEGTPEDSQHMEGICSREQDVDATVPENAKPKPKKTKKKTKAVSNDNEDTNGDGVHEITSRDSPVHPKCLLDDDLVMGVYIHRTDRLKSDFMISHPMVKIHVVDEHTGQYVKKDDSERPVSSYYEKDNVDYILPIMTQPYDFKKLKSRLPEWEEQVIFNENFPYLLREFEECPKVILFFEILDFLSMDEIKNNSEVQNQECGFRKIAWAFLKLLGANGNANINSKLRLQLYYPPTKPRSQLNVVEVFEWWSKCPRNRYPSTLYVTVRGLKVPDCIKPSYRSMMALQEERGTPVYCERHRETSSVDTEPGLEDSKEEVKWKRLPGQACRIPNKHLFSLNAGERGCFCLDFSHNGRILAAACASRDGYPIILYEIPSGRFMRELCGHLNIIYDLDWSKDDRYLVTSSSDGTARVWKNEINSTSTFRVLPHPSFVYTAKFHPATRELVVTGCYDSMIRIWKIDAREDAAILVRQLDVHKSFVNSICFDDEGHHMYSGDCIGVIVVWDTYVKVNDVQTSVRHWTINKEIKETEFRGVPISYLEVHPNGKRLLIHTKDSTLRIMDLRILAARKFVGAANYREKIHSTLTPCGTLLFSGSEDGIVYVWNPETGEQVAMYSDLPFKSTIRDISYHPLENMVAFCAFGQSEPILLYIYDFQVAQQEAEMLKRYSGTLPLPGIHQSEDALCTCPKLPQQGSFQIDEFVNTENSSSRKIQLVKQRLETVTEVIRSCAAKVNKNLSMTSPPPGPAKKPRVKQSFVLTTDEIIHQFGLPQTAFISIERGPFVRHVDPPPMVVALYDYTASRSDELTIHRGDIIRVYFKDNEDWWYGSVRKGQEGFFPANHVASETLYRDSPPKVKERSPPLTPKEKTKPEKPLASQKQSLSKGRPLDPRLGPQPVGHSEKGKDQNVEDRGHKVDMETKKSEPVVRKVTLIE
# Molecular target: calcium-dependent activator protein for secretion 1 (CAPS1) (mouse (endogenous in whole mouse brain)) (UniProt Q80TJ1)
# Experiment: affinity purification with mass spectrometry; immunoprecipitation of endogenous CAPS1 from precleared whole mouse brain lysate with a rabbit anti-CAPS1 antibody (3 h, room temperature) and Protein G Dynabeads (1 h); lysis buffer 20 mM HEPES, 150 mM KCl, 0.05% Tween-20, 100 nM CaCl2, pH 7.4, 300 mM sucrose; rabbit IgG as negative control; eluates analysed by nano-LC-MS/MS, three independent eluates
row,binding,Molecule
1,binds,dynactin subunit 1 (from UniProt O08788 1-1281)
2,binds,MAP6 (from UniProt Q7TSJ2 1-906)
3,binds,B1

# These are yes or no findings as the source states them, for the method shown. Binding seen in cells or lysates may run through a third protein. A yes stands for co-enrichment or nearness to the bait. Other partners may have been found.
